The supplement of paper PMC7661543
± gives the standard deviation of the averaged measurements. Differences between knockout arms are mostly noise.

Tested on: HCC-38
Assay: relative cell number vs DMSO control (72 h) (% of DMSO); higher = less growth inhibition (more cells)
Experimental: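 QMAP-Seq: a pool of 5 breast cancer cell lines (ZR-75-1, SKBR3, HCC-38, MDA-MB-231, BT-20), each carrying 12 doxycycline-inducible Cas9 sgRNA perturbations (11 knockouts plus non-targeting sgNT), was treated with compounds for 72 h at four 10-fold doses (10 nM-10 uM or 1 nM-1 uM range). Barcodes were amplified and sequenced, and cell number was interpolated from 293T spike-in standard curves. The result is expressed as % of the median of DMSO wells. Two biological replicates.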

CN1CCc2c(c3ccccc3n2Cc2ccc(C(=O)NO)cc2)C1 [TubastatinA]
Conditions | relative cell number
sgRNA knockout: sgATF3, 10 nM | 110.1 ± 0.41
sgRNA knockout: sgATF3, 100 nM | 88.8 ± 9.8
sgRNA knockout: sgATF3, 1000 nM | 97.1 ± 11
sgRNA knockout: sgATF3, 10000 nM | 67.1 ± 5.2
sgRNA knockout: sgATF4, 10 nM | 99.8 ± 3.3
sgRNA knockout: sgATF4, 100 nM | 96.5 ± 19
sgRNA knockout: sgATF4, 1000 nM | 109 ± 13
sgRNA knockout: sgATF4, 10000 nM | 67.7 ± 3
sgRNA knockout: sgATF6, 10 nM | 106 ± 5.9
sgRNA knockout: sgATF6, 100 nM | 97.6 ± 6.9
sgRNA knockout: sgATF6, 1000 nM | 108 ± 20
sgRNA knockout: sgATF6, 10000 nM | 62.8 ± 7.8
sgRNA knockout: sgATG7, 10 nM | 103 ± 13
sgRNA knockout: sgATG7, 100 nM | 88.5 ± 7.1
sgRNA knockout: sgATG7, 1000 nM | 105 ± 9.5
sgRNA knockout: sgATG7, 10000 nM | 62.9 ± 3.4
sgRNA knockout: sgERN1, 10 nM | 104 ± 5.2
sgRNA knockout: sgERN1, 100 nM | 88.9 ± 11
sgRNA knockout: sgERN1, 1000 nM | 98.8 ± 14
sgRNA knockout: sgERN1, 10000 nM | 68.3 ± 3
sgRNA knockout: sgHSF1, 10 nM | 102 ± 9.6
sgRNA knockout: sgHSF1, 100 nM | 78 ± 20
sgRNA knockout: sgHSF1, 1000 nM | 101 ± 14
sgRNA knockout: sgHSF1, 10000 nM | 81.8 ± 16
sgRNA knockout: sgHSF2, 10 nM | 103 ± 6.5
sgRNA knockout: sgHSF2, 100 nM | 87.3 ± 7.5
sgRNA knockout: sgHSF2, 1000 nM | 109 ± 21
sgRNA knockout: sgHSF2, 10000 nM | 67.6 ± 10
sgRNA knockout: sgKEAP1, 10 nM | 94.7 ± 0.98
sgRNA knockout: sgKEAP1, 100 nM | 89.6 ± 4.9
sgRNA knockout: sgKEAP1, 1000 nM | 96 ± 1.4
sgRNA knockout: sgKEAP1, 10000 nM | 69.9 ± 5.9
sgRNA knockout: sgNFE2L2, 10 nM | 109 ± 3.5
sgRNA knockout: sgNFE2L2, 100 nM | 88 ± 14
sgRNA knockout: sgNFE2L2, 1000 nM | 112 ± 21
sgRNA knockout: sgNFE2L2, 10000 nM | 59.6 ± 2.8
sgRNA knockout: sgSLC35F2, 10 nM | 106 ± 2.1
sgRNA knockout: sgSLC35F2, 100 nM | 87.2 ± 11
sgRNA knockout: sgSLC35F2, 1000 nM | 100 ± 17
sgRNA knockout: sgSLC35F2, 10000 nM | 69.1 ± 12
sgRNA knockout: sgXBP1, 10 nM | 111.8 ± 0.71
sgRNA knockout: sgXBP1, 100 nM | 90.4 ± 13
sgRNA knockout: sgXBP1, 1000 nM | 99.9 ± 9.4
sgRNA knockout: sgXBP1, 10000 nM | 65.5 ± 1.8

N.N.[Cl][Pt][Cl] [Cisplatin]
Conditions | relative cell number
sgRNA knockout: sgATF3, 10 nM | 111 ± 18
sgRNA knockout: sgATF3, 100 nM | 76.5 ± 6
sgRNA knockout: sgATF3, 1000 nM | 104 ± 5.9
sgRNA knockout: sgATF3, 10000 nM | 96.1 ± 1.1
sgRNA knockout: sgATF4, 10 nM | 112 ± 20
sgRNA knockout: sgATF4, 100 nM | 75.7 ± 4.7
sgRNA knockout: sgATF4, 1000 nM | 105 ± 10
sgRNA knockout: sgATF4, 10000 nM | 86 ± 13
sgRNA knockout: sgATF6, 10 nM | 110 ± 4
sgRNA knockout: sgATF6, 100 nM | 88.5 ± 3.2
sgRNA knockout: sgATF6, 1000 nM | 110 ± 3.6
sgRNA knockout: sgATF6, 10000 nM | 93.9 ± 7.8
sgRNA knockout: sgATG7, 10 nM | 112 ± 12
sgRNA knockout: sgATG7, 100 nM | 79.3 ± 6.7
sgRNA knockout: sgATG7, 1000 nM | 104 ± 18
sgRNA knockout: sgATG7, 10000 nM | 89.75 ± 0.44
sgRNA knockout: sgERN1, 10 nM | 115 ± 23
sgRNA knockout: sgERN1, 100 nM | 81.7 ± 3.9
sgRNA knockout: sgERN1, 1000 nM | 108 ± 1.3
sgRNA knockout: sgERN1, 10000 nM | 93.83 ± 0.62
sgRNA knockout: sgHSF1, 10 nM | 93.9 ± 8.9
sgRNA knockout: sgHSF1, 100 nM | 84.9 ± 7.6
sgRNA knockout: sgHSF1, 1000 nM | 108 ± 19
sgRNA knockout: sgHSF1, 10000 nM | 105 ± 6.5
sgRNA knockout: sgHSF2, 10 nM | 110 ± 13
sgRNA knockout: sgHSF2, 100 nM | 81.5 ± 5.6
sgRNA knockout: sgHSF2, 1000 nM | 94.71 ± 0.39
sgRNA knockout: sgHSF2, 10000 nM | 95 ± 5.7
sgRNA knockout: sgKEAP1, 10 nM | 95.3 ± 21
sgRNA knockout: sgKEAP1, 100 nM | 85.9 ± 9.6
sgRNA knockout: sgKEAP1, 1000 nM | 97.6 ± 28
sgRNA knockout: sgKEAP1, 10000 nM | 107 ± 1.9
sgRNA knockout: sgNFE2L2, 10 nM | 113 ± 7
sgRNA knockout: sgNFE2L2, 100 nM | 75.3 ± 9.9
sgRNA knockout: sgNFE2L2, 1000 nM | 115 ± 6.3
sgRNA knockout: sgNFE2L2, 10000 nM | 77 ± 4.8
sgRNA knockout: sgSLC35F2, 10 nM | 114 ± 12
sgRNA knockout: sgSLC35F2, 100 nM | 80.6 ± 1.5
sgRNA knockout: sgSLC35F2, 1000 nM | 105 ± 16
sgRNA knockout: sgSLC35F2, 10000 nM | 88.6 ± 1.9
sgRNA knockout: sgXBP1, 10 nM | 110 ± 11
sgRNA knockout: sgXBP1, 100 nM | 79.1 ± 5
sgRNA knockout: sgXBP1, 1000 nM | 105.8 ± 0.83
sgRNA knockout: sgXBP1, 10000 nM | 88.9 ± 3

CCOC(=O)c1ccc(N2NC(=O)C(=Cc3ccc([N+](=O)[O-])o3)C2=O)cc1 [PYR41]
Conditions | relative cell number
sgRNA knockout: sgATF3, 10 nM | 84.9 ± 2
sgRNA knockout: sgATF3, 100 nM | 92.26 ± 0.64
sgRNA knockout: sgATF3, 1000 nM | 106 ± 11
sgRNA knockout: sgATF3, 10000 nM | 92.4 ± 8.5
sgRNA knockout: sgATF4, 10 nM | 86.95 ± 0.57
sgRNA knockout: sgATF4, 100 nM | 85.2 ± 9.4
sgRNA knockout: sgATF4, 1000 nM | 106 ± 21
sgRNA knockout: sgATF4, 10000 nM | 86.2 ± 2.1
sgRNA knockout: sgATF6, 10 nM | 107 ± 8.7
sgRNA knockout: sgATF6, 100 nM | 92.8 ± 6.8
sgRNA knockout: sgATF6, 1000 nM | 121 ± 1.6
sgRNA knockout: sgATF6, 10000 nM | 86 ± 16
sgRNA knockout: sgATG7, 10 nM | 91.4 ± 3
sgRNA knockout: sgATG7, 100 nM | 87.3 ± 13
sgRNA knockout: sgATG7, 1000 nM | 110 ± 5.1
sgRNA knockout: sgATG7, 10000 nM | 87.1 ± 5.5
sgRNA knockout: sgERN1, 10 nM | 88.4 ± 14
sgRNA knockout: sgERN1, 100 nM | 82.4 ± 4.2
sgRNA knockout: sgERN1, 1000 nM | 97.2 ± 8.9
sgRNA knockout: sgERN1, 10000 nM | 83.04 ± 0.82
sgRNA knockout: sgHSF1, 10 nM | 92.3 ± 2.8
sgRNA knockout: sgHSF1, 100 nM | 85.4 ± 3.3
sgRNA knockout: sgHSF1, 1000 nM | 122 ± 4.2
sgRNA knockout: sgHSF1, 10000 nM | 97.7 ± 26
sgRNA knockout: sgHSF2, 10 nM | 85 ± 4.8
sgRNA knockout: sgHSF2, 100 nM | 98.7 ± 1.6
sgRNA knockout: sgHSF2, 1000 nM | 112.6 ± 0.92
sgRNA knockout: sgHSF2, 10000 nM | 103 ± 2.1
sgRNA knockout: sgKEAP1, 10 nM | 100 ± 1.1
sgRNA knockout: sgKEAP1, 100 nM | 94.3 ± 6
sgRNA knockout: sgKEAP1, 1000 nM | 115 ± 13
sgRNA knockout: sgKEAP1, 10000 nM | 86.1 ± 15
sgRNA knockout: sgNFE2L2, 10 nM | 82.2 ± 1.8
sgRNA knockout: sgNFE2L2, 100 nM | 83.6 ± 6.9
sgRNA knockout: sgNFE2L2, 1000 nM | 105 ± 14
sgRNA knockout: sgNFE2L2, 10000 nM | 86.1 ± 3.5
sgRNA knockout: sgSLC35F2, 10 nM | 90.8 ± 8.6
sgRNA knockout: sgSLC35F2, 100 nM | 84 ± 11
sgRNA knockout: sgSLC35F2, 1000 nM | 103 ± 1.7
sgRNA knockout: sgSLC35F2, 10000 nM | 87.3 ± 6.1
sgRNA knockout: sgXBP1, 10 nM | 89.2 ± 9.8
sgRNA knockout: sgXBP1, 100 nM | 80 ± 2.3
sgRNA knockout: sgXBP1, 1000 nM | 107 ± 7.5
sgRNA knockout: sgXBP1, 10000 nM | 87.8 ± 6.8
